Values from PubChem BioAssay AID1224830 (NIAID, 2016)
This is a random part of about 18,000 reagents tested. In the full data, about 2,900 (16%) were called active. 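Calls are made per well; low scores hint the gene aids the LPS response, high scores that it dampens it.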 Repeated entries: four replicate wells of each siRNA pool.

- Purpose: 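Genes whose knock-down alters the TNF-alpha reporter response to LPS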 (primary screen)
- Cell system: human THP-1 monocytic leukaemia cells, TNF dual-luciferase reporter clone, PMA-differentiated to macrophage-like cells
- Knock-down reagent: siRNA pool against human genes, 50 nM
- Timing: LPS for 4 h, given about 3 days after siRNA transfection
- Treatment: bacterial LPS (TLR4 ligand), 10 ng/ml
- Measurement: 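Ratio of firefly to renilla light, scaled to the plate median and expressed as a robust z-score per replicate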
- Scale: TNF reporter robust z-score: higher = stronger TNF reporter response to LPS
- Call rule: 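a well is active when its z-score exceeds 2.8 or falls below -1.5; control wells carry no call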

With ZC3H3, how do the results read?
TNF reporter robust z-score: -0.03; Call: inactive

How did the screen score ZC3H3?
TNF reporter robust z-score: 0.71; Call: inactive

How did the screen score ZC3H3?
TNF reporter robust z-score: 0.19; Call: inactive

With ZC3H3, how do the results read?
TNF reporter robust z-score: 0.09; Call: inactive

What did the screen give for LAMA5?
TNF reporter robust z-score: -0.51; Call: inactive

For LAMA5, what was measured?
TNF reporter robust z-score: -0.92; Call: inactive

With LAMA5, how do the results read?
TNF reporter robust z-score: -1; Call: inactive

Which result is listed for LAMA5?
TNF reporter robust z-score: -0.53; Call: inactive

For DCSTAMP, what does the deposit list?
TNF reporter robust z-score: -0.63; Call: inactive

With DCSTAMP, what was measured?
TNF reporter robust z-score: -0.2; Call: inactive

What is on record for DCSTAMP?
TNF reporter robust z-score: -0.36; Call: inactive

For DCSTAMP, what does the deposit list?
TNF reporter robust z-score: -0.39; Call: inactive

For IL18, how do the results read?
TNF reporter robust z-score: -0.76; Call: inactive

What did the screen give for IL18?
TNF reporter robust z-score: -0.11; Call: inactive

With IL18, how do the results read?
TNF reporter robust z-score: 0.37; Call: inactive

For IL18, what does the deposit list?
TNF reporter robust z-score: 0.46; Call: inactive

With ZNF143, how do the results read?
TNF reporter robust z-score: 0.22; Call: inactive

For ZNF143, how do the results read?
TNF reporter robust z-score: 1.8; Call: inactive

With ZNF143, how do the results read?
TNF reporter robust z-score: -0.07; Call: inactive

With ZNF143, how do the results read?
TNF reporter robust z-score: 0.47; Call: inactive

How did the screen score KCNJ13?
TNF reporter robust z-score: 0.09; Call: inactive

What is on record for KCNJ13?
TNF reporter robust z-score: 1.29; Call: inactive

With KCNJ13, what does the deposit list?
TNF reporter robust z-score: 0.27; Call: inactive

For KCNJ13, how do the results read?
TNF reporter robust z-score: 0.64; Call: inactive

With KRTAP10-2, what was measured?
TNF reporter robust z-score: 0.47; Call: inactive

What did the screen give for KRTAP10-2?
TNF reporter robust z-score: 1.04; Call: inactive

What is on record for KRTAP10-2?
TNF reporter robust z-score: 0.23; Call: inactive

With KRTAP10-2, what was measured?
TNF reporter robust z-score: 1.61; Call: inactive

For ELOVL6, what does the deposit list?
TNF reporter robust z-score: 0.74; Call: inactive

With ELOVL6, how do the results read?
TNF reporter robust z-score: 1.07; Call: inactive

How did the screen score ELOVL6?
TNF reporter robust z-score: -0.57; Call: inactive

For ELOVL6, what does the deposit list?
TNF reporter robust z-score: 0.59; Call: inactive

Which result is listed for SSPOP?
Call: inactive

9 of these entries in another layout.
gene,TNF reporter robust z-score,Call
DCSTAMP,-0.63,inactive
DCSTAMP,-0.2,inactive
DCSTAMP,-0.36,inactive
DCSTAMP,-0.39,inactive
IL18,-0.76,inactive
IL18,-0.11,inactive
IL18,0.37,inactive
IL18,0.46,inactive
ZNF143,0.22,inactive

The listing continues:
Which result is listed for PRRG2?
TNF reporter robust z-score: 0.33; Call: inactive

With PRRG2, what was measured?
TNF reporter robust z-score: 0.37; Call: inactive

Which result is listed for PRRG2?
TNF reporter robust z-score: 1.75; Call: inactive

Which result is listed for PRRG2?
TNF reporter robust z-score: 1.34; Call: inactive

What did the screen give for PTMA?
TNF reporter robust z-score: -1; Call: inactive

With PTMA, what was measured?
TNF reporter robust z-score: -1.06; Call: inactive

For PTMA, how do the results read?
TNF reporter robust z-score: -1.32; Call: inactive

What is on record for PTMA?
TNF reporter robust z-score: -1.38; Call: inactive

Which result is listed for GIMAP5?
TNF reporter robust z-score: 0.05; Call: inactive

With GIMAP5, what was measured?
TNF reporter robust z-score: -0.2; Call: inactive

What is on record for GIMAP5?
TNF reporter robust z-score: -0.09; Call: inactive

For GIMAP5, what was measured?
TNF reporter robust z-score: 0.16; Call: inactive

What is on record for POTEB3?
TNF reporter robust z-score: -1.08; Call: inactive

What is on record for POTEB3?
TNF reporter robust z-score: -0.22; Call: inactive

For POTEB3, what was measured?
TNF reporter robust z-score: 0.09; Call: inactive

What is on record for POTEB3?
TNF reporter robust z-score: -0.43; Call: inactive

With RBM43, what was measured?
TNF reporter robust z-score: -0.64; Call: inactive

For RBM43, how do the results read?
TNF reporter robust z-score: 0.22; Call: inactive

How did the screen score RBM43?
TNF reporter robust z-score: 0.1; Call: inactive

For RBM43, what does the deposit list?
TNF reporter robust z-score: 0.16; Call: inactive

What did the screen give for RAD54B?
TNF reporter robust z-score: -1.13; Call: inactive

What is on record for RAD54B?
TNF reporter robust z-score: -0.22; Call: inactive

What did the screen give for RAD54B?
TNF reporter robust z-score: -0.3; Call: inactive

What is on record for RAD54B?
TNF reporter robust z-score: -0.43; Call: inactive

What is on record for PIP4K2B?
TNF reporter robust z-score: -0.52; Call: inactive

What did the screen give for PIP4K2B?
TNF reporter robust z-score: -0.58; Call: inactive

For PIP4K2B, what does the deposit list?
TNF reporter robust z-score: -0.65; Call: inactive
